The record followed here is publication PMC7893028.

Protein sequences, listed by entry. Tags and fused reporters are not part of them. Residues count along the entry.
UniProt Q99MB1, residues 26-905: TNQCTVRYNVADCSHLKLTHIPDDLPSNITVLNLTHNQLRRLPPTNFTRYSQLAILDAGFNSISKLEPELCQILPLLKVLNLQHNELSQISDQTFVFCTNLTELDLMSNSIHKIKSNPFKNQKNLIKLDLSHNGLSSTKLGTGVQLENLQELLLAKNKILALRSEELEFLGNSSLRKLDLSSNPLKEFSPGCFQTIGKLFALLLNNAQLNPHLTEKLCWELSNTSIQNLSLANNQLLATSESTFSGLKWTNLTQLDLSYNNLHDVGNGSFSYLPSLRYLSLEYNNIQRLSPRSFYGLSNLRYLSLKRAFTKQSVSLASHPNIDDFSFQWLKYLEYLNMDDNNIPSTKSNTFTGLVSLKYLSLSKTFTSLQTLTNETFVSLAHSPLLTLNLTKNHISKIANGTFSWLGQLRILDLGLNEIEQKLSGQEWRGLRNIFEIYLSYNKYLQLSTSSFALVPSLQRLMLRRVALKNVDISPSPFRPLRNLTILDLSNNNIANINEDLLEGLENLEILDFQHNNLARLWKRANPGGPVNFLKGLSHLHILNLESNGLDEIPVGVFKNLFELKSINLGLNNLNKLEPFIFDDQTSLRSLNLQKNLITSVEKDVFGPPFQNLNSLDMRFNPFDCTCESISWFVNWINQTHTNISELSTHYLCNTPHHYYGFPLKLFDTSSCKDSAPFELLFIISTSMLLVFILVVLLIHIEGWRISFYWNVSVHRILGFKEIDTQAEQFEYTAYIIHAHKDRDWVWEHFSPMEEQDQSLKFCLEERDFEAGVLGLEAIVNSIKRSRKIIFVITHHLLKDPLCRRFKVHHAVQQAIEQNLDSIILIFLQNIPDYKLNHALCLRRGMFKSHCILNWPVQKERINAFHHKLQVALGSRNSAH
UniProt O15455, residues 24-904: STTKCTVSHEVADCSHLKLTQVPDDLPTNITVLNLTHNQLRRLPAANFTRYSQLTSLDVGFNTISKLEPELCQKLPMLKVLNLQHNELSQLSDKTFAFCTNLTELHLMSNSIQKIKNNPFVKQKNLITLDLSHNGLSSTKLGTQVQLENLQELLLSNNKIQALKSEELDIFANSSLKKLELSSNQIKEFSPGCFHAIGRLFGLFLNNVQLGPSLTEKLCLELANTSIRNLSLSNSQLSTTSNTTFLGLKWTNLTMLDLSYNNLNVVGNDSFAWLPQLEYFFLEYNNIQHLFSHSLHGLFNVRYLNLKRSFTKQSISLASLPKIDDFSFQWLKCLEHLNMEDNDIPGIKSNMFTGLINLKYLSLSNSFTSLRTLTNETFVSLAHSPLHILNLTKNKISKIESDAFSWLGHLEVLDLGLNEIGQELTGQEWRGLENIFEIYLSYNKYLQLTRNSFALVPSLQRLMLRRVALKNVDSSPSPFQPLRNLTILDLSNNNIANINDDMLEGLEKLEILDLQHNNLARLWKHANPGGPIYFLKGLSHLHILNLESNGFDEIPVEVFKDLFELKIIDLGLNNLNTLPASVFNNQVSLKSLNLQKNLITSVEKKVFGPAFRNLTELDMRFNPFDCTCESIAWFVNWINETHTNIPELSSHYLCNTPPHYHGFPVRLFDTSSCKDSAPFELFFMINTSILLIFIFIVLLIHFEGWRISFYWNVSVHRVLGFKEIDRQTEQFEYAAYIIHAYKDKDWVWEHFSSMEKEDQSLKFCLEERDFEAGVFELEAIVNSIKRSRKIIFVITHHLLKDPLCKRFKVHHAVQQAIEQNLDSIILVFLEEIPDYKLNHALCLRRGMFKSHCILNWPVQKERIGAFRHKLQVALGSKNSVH

The target in experiment [1] is Mouse TLR3, endogenous in BMDMs (mouse (endogenous in BMDMs)) (UniProt Q99MB1). Description: FRET or BRET; FLIM-FRET in BMDMs of ROSA-CLEC18A/CLEC18A(S339R) knock-in mice; preincubated with TLR3/dsRNA complex inhibitor (various concentrations) for 1 h, then HMW poly (I:C) 25 μg/ml for 2 h. On the technique in general: Bioluminescence resonance energy transfer reports proximity on the nanometre scale.

The target in experiment [2] is Flag-tagged human TLR3, full-length (pFlag-CMV1-hTLR3) (human) (UniProt O15455). Description: co-IP; 293T cells co-transfected with HA-CLEC18A or HA-CLEC18A(S339R) and Flag-TLR3 (full-length or deletion mutants), 48 h; lysates precipitated with anti-Flag mAb Sepharose beads, blot with anti-HA and anti-Flag; isotype mAb beads as control.

Results are given in words; binding and its absence hold for the method and conditions named. In cells and extracts the contact can be indirect. Some entries that bind do so weakly or less than the wild type. For some of these results: Tags and fused reporters may be left off the sequences shown.

B1: Human CLEC18A expressed in BMDMs of ROSA-CLEC18A knock-in mice (protein, UniProt A5D8T8 27-446)
chain: EVWPPQLQEQAPMAGALNRKESFLLLSLHNRLRSWVQPPAADMRRLDWSDSLAQLAQARAALCGTPTPSLASGLWRTLQVGWNMQLLPAGLVSFVEVVSLWFAEGQRYSHAAGECARNATCTHYTQLVWATSSQLGCGRHLCSAGQAAIEAFVCAYSPRGNWEVNGKTIVPYKKGAWCSLCTASVSGCFKAWDHAGGLCEVPRNPCRMSCQNHGRLNISTCHCHCPPGYTGRYCQVRCSLQCVHGRFREEECSCVCDIGYGGAQCATKVHFPFHTCDLRIDGDCFMVSSEADTYYRARMKCQRKGGVLAQIKSQKVQDILAFYLGRLETTNEVIDSDFETRNFWIGLTYKTAKDSFRWATGEHQAFTSFAFGQPDNHGFGNCVELQASAAFNWNDQRCKTRNRYICQFAQEHISRWGPGS
B1: the binding entry in experiment [1] is reported as “binds”.

B2: HA-tagged human CLEC18A(S339R) (pMACS.Kk-HA(C)-hCLEC18A(S339R)) (protein, UniProt A5D8T8 27-446)
chain: EVWPPQLQEQAPMAGALNRKESFLLLSLHNRLRSWVQPPAADMRRLDWSDSLAQLAQARAALCGTPTPSLASGLWRTLQVGWNMQLLPAGLVSFVEVVSLWFAEGQRYSHAAGECARNATCTHYTQLVWATSSQLGCGRHLCSAGQAAIEAFVCAYSPRGNWEVNGKTIVPYKKGAWCSLCTASVSGCFKAWDHAGGLCEVPRNPCRMSCQNHGRLNISTCHCHCPPGYTGRYCQVRCSLQCVHGRFREEECSCVCDIGYGGAQCATKVHFPFHTCDLRIDGDCFMVSSEADTYYRARMKCQRKGGVLAQIKRQKVQDILAFYLGRLETTNEVIDSDFETRNFWIGLTYKTAKDSFRWATGEHQAFTSFAFGQPDNHGFGNCVELQASAAFNWNDQRCKTRNRYICQFAQEHISRWGPGS
In the case of B2, the binding result in experiment [2] is given as “binds”.

B3: Human CLEC18A(S339R) expressed in BMDMs of ROSA-CLEC18A(S339R) knock-in mice (protein, UniProt A5D8T8 27-446)
chain: EVWPPQLQEQAPMAGALNRKESFLLLSLHNRLRSWVQPPAADMRRLDWSDSLAQLAQARAALCGTPTPSLASGLWRTLQVGWNMQLLPAGLVSFVEVVSLWFAEGQRYSHAAGECARNATCTHYTQLVWATSSQLGCGRHLCSAGQAAIEAFVCAYSPRGNWEVNGKTIVPYKKGAWCSLCTASVSGCFKAWDHAGGLCEVPRNPCRMSCQNHGRLNISTCHCHCPPGYTGRYCQVRCSLQCVHGRFREEECSCVCDIGYGGAQCATKVHFPFHTCDLRIDGDCFMVSSEADTYYRARMKCQRKGGVLAQIKRQKVQDILAFYLGRLETTNEVIDSDFETRNFWIGLTYKTAKDSFRWATGEHQAFTSFAFGQPDNHGFGNCVELQASAAFNWNDQRCKTRNRYICQFAQEHISRWGPGS
Turning to B3, in experiment [1], the binding entry is recorded as “binds”.

B4: HA-tagged human CLEC18A (pMACS.Kk-HA(C)-hCLEC18A) (protein, UniProt A5D8T8 27-446)
chain: EVWPPQLQEQAPMAGALNRKESFLLLSLHNRLRSWVQPPAADMRRLDWSDSLAQLAQARAALCGTPTPSLASGLWRTLQVGWNMQLLPAGLVSFVEVVSLWFAEGQRYSHAAGECARNATCTHYTQLVWATSSQLGCGRHLCSAGQAAIEAFVCAYSPRGNWEVNGKTIVPYKKGAWCSLCTASVSGCFKAWDHAGGLCEVPRNPCRMSCQNHGRLNISTCHCHCPPGYTGRYCQVRCSLQCVHGRFREEECSCVCDIGYGGAQCATKVHFPFHTCDLRIDGDCFMVSSEADTYYRARMKCQRKGGVLAQIKSQKVQDILAFYLGRLETTNEVIDSDFETRNFWIGLTYKTAKDSFRWATGEHQAFTSFAFGQPDNHGFGNCVELQASAAFNWNDQRCKTRNRYICQFAQEHISRWGPGS
Turning to B4, the binding entry in experiment [2] is “binds”.
